Measured values taken from paper PMC5558740.
No constants are given. Whether binding was seen depends on the method and setting.

Biological target: T1, synthetic CX3CR1 peptide (aa 2-21) containing the binding region to CX3CL1
T1 sequence (peptide): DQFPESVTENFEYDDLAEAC
Assay: affinity chromatography; CX3CR1 peptide coupled to CNBr-activated Sepharose 4B; protein (1 mg/ml) loaded in buffer A (0.1 M Mes pH 6.4, 0.5 mM MgCl2, 2 mM EGTA); bound protein eluted with 0.5 M NaCl in buffer A; fractions read by dot immunoblot; both purified

HLSNVSSTGSIDMVDSPQLATLADEV [synthetic c-terminal Tau peptide (aa 407-432)]
binding: no binding (tested: 1 mg/ml)
